Experimental data reported in US5547668A, “Conjugates of folate anti-effector cell antibodies” (The Board of Trustees of The University of Illinois, priority 1995, dated 1996).
At least one structure is not confirmed: it was looked up by name or label, or the drawing left a doubt.

Tests used:
F2-MTX^r A cells [1] = assay: ^51 Cr-release cytotoxicity assay, F2-MTX^r A, CTL clone 2C as effector; type: cell-based, mouse; conditions: folate 2.5 mM, each of the conjugates
F2-MTX^r A cells [2] = assay: ^51 Cr-release cytotoxicity assay, F2-MTX^r A, polyclonal BALB/c T-cells as effectors; type: cell-based, mouse; conditions: polyclonal CTL, separate experiment
[3] = molecular target: constitutive folate carrier protein(s); conditions: cited from earlier work
[4] = molecular target: mouse homologs of the human FR isoforms; conditions: cited from earlier work

SMILES: Nc1nc(=O)c2nc(CNc3ccc(C(=O)N[C@@H](CCC(=O)O)C(=O)O)cc3)cnc2[nH]1 [folate]
- inhibition of conjugate-mediated lysis by free folate (F2-MTX^r A cells [1]): inhibit lysis
- inhibition of folate/2C11 mediated lysis by free folate (F2-MTX^r A cells [2]): completely inhibited
- inhibition of folate/KJ16 mediated lysis by free folate (F2-MTX^r A cells [2]): completely inhibited
- Kd [3]: ~100 mM
- Kd [4]: ~1 nM
